Assay results published in PMC3328451, “Mycobacterium tuberculosis Rv3586 (DacA) Is a Diadenylate Cyclase That Converts ATP or ADP into c-di-AMP” (PLoS ONE, 2012).
Results are given in words; binding and its absence hold for the method and conditions named. Some entries that bind do so weakly or less than the wild type.

Target: DacA_(1–287) (Mycobacterium tuberculosis H37Rv) (UniProt P9WNW5)
Assay: SEC; gel filtration of the truncated proteins, data not shown; both purified

B1: DacA_(1–287) (domain or fragment)
chain: MHAVTRPTLREAVARLAPGTGLRDGLERILRGRTGALIVLGHDENVEAICDGGFSLDVRYAATRLRELCKMDGAVVLSTDGSRIVRANVQLVPDPSIPTDESGTRHRSAERAAIQTGYPVISVSHSMNIVTVYVRGERHVLTDSATILSRANQAIATLERYKTRLDEVSRQLSRAEIEDFVTLRDVMTVVQRLELVRRIGLVIDYDVVELGTDGRQLRLQLDELLGGNDTARELIVRDYHANPEPPSTGQINATLDELDALSDGDLLDFTALAKVFGYPTTTEAQDS
notes: also called first 287 aa of DacA; DacA lacking the C-terminal HhH domain
**Q.** How did the binding turn out when B1 was run?
**A.** binds
